These are yes or no findings as the source states them, for the method shown. A result given as binding can be weak or reduced; the word gives no strength. For some assays here: Binding seen in cells or lysates may run through a third protein.
What was measured:
[1] = target: His6-ThsB1 (Sau–Thoeris ThsB1 with an N-terminal hexahistidyl tag) (Staphylococcus aureus 08BA02176); assay: pull-down; cobalt affinity resin on lysates of cells expressing His6-ThsB1 or ThsB2-His6, the 3× Flag-tagged other sensor, and wild type, V273A or W84K Mhp from the pMhp plasmid; Coomassie SDS–PAGE
[2] = target: His6-ThsB1 (Sau–Thoeris ThsB1 with an N-terminal hexahistidyl tag) (Staphylococcus aureus 08BA02176); assay: pull-down; cobalt affinity resin on lysates of staphylococci with Mhp (text: overexpressed from pMhp; legend: infected with Φ80α-vir) and either His6-ThsB1 or ThsB2-His6, not both; Coomassie SDS–PAGE
[3] = target: His6-ThsB1 (Sau–Thoeris ThsB1 with an N-terminal hexahistidyl tag) (Staphylococcus aureus 08BA02176); assay: native gel or EMSA; native PAGE of purified ThsB1, ThsB2 and Mhp mixed together at different molar ratios, with NAD+; complex only at 1:1:1; both purified
[4] = target: His6-tagged Seq–ThsB2 (Streptococcus equinis CNU77-23 (also printed S. equinus CNU 77-23)); assay: pull-down; cobalt affinity resin on cytoplasmic extracts of staphylococci expressing His6-tagged Seq–ThsB1 or Seq–ThsB2 with the other Seq–ThsB, with or without overexpression of Mhp(Φ80α); Coomassie SDS–PAGE
[5] = target: Seq–ThsB1-His6 (Streptococcus equinis CNU77-23 (also printed S. equinus CNU 77-23)); assay: as above

Measured: binding

B1: Major head protein (Mhp) of phage Φ80α, gp47 (protein, UniProt A4ZFB3 15-324)
chain: ASNNVKPQVFNPDNVMMHEKKDGTLMNEFTTPILQEVMENSKIMQLGKYEPMEGTEKKFTFWADKPGAYWVGEGQKIETSKATWVNATMRAFKLGVILPVTKEFLNYTYSQFFEEMKPMIAEAFYKKFDEAGILNQGNNPFGKSIAQSIEKTNKVIKGDFTQDNIIDLEALLEDDELEANAFISKTQNRSLLRKIVDPETKERIYDRNSDSLDGLPVVNLKSSNLKRGELITGDFDKLIYGIPQLIEYKIDETAQLSTVKNEDGTPVNLFEQDMVALRATMHVALHIADDKAFAKLVPADKRTDSVPGEV
binds: [1] | [2] | [3] | [4] | [5]

Reference: paper PMC12578639
